Source: publication PMC10681309
No constants are given. Whether binding was seen depends on the method and setting. For some of these results: In cells and extracts the contact can be indirect. Some results given as binding are weak or reduced against the parent protein; the word gives no strength. For some of these results: Where a sequence is shown, tags or fusion partners need not be part of it.

T1: GFP-MDA5 (UniProt Q9BYX4)
T1 sequence: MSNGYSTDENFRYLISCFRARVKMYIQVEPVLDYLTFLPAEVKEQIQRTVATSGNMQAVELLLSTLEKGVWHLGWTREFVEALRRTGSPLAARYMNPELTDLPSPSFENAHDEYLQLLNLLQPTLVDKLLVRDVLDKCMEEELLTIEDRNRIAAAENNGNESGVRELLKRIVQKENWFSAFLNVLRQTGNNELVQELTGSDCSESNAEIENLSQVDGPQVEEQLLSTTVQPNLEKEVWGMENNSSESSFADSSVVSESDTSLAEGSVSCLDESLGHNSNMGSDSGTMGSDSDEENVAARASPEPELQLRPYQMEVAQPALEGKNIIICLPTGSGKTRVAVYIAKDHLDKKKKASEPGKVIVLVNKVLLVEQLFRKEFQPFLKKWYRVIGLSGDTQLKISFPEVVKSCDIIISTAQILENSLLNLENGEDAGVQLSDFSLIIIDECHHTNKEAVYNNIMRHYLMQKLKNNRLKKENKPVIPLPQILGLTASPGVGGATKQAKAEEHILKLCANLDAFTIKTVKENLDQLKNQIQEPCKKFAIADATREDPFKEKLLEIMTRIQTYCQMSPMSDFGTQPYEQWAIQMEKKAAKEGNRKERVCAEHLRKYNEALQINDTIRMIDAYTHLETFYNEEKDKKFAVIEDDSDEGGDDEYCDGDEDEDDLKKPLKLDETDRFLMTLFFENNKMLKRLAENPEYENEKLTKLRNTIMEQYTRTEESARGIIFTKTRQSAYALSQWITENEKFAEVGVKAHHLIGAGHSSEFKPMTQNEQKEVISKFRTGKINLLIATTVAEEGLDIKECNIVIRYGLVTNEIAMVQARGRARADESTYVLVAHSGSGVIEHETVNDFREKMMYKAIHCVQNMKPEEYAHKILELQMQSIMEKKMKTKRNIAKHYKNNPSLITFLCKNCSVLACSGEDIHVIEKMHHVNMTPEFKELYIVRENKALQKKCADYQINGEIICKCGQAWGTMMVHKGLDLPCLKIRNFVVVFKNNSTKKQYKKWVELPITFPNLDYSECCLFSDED

T2: GST-MDA5 (purified from E. coli) (UniProt Q9BYX4)
T2 sequence: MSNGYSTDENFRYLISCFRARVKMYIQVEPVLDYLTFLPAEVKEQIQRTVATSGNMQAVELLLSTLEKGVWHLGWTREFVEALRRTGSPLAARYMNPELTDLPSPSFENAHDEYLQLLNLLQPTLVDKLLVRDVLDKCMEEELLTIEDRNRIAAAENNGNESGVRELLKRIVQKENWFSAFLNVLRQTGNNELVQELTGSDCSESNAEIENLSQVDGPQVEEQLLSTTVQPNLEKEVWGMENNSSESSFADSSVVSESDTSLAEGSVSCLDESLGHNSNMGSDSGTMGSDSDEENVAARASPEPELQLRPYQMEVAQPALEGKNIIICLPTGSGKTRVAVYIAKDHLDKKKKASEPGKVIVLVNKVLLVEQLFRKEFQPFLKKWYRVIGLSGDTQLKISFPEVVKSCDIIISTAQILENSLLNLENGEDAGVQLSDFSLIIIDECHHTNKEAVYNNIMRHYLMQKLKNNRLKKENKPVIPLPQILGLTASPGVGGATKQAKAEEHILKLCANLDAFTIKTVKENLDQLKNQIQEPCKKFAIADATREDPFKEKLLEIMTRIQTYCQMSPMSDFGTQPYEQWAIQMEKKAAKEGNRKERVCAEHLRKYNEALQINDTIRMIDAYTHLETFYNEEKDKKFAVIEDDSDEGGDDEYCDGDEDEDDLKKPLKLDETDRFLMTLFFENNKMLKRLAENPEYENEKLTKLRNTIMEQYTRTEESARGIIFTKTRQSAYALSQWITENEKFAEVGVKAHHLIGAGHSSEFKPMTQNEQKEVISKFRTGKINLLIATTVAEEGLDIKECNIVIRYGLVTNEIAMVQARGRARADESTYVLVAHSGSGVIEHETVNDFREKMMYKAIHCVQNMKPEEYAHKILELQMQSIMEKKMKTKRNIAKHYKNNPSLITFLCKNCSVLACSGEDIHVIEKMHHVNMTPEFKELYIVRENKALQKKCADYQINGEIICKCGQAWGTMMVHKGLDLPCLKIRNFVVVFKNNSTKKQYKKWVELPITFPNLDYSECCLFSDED

T3: HA-TRIM4 (UniProt Q9C037)
T3 sequence: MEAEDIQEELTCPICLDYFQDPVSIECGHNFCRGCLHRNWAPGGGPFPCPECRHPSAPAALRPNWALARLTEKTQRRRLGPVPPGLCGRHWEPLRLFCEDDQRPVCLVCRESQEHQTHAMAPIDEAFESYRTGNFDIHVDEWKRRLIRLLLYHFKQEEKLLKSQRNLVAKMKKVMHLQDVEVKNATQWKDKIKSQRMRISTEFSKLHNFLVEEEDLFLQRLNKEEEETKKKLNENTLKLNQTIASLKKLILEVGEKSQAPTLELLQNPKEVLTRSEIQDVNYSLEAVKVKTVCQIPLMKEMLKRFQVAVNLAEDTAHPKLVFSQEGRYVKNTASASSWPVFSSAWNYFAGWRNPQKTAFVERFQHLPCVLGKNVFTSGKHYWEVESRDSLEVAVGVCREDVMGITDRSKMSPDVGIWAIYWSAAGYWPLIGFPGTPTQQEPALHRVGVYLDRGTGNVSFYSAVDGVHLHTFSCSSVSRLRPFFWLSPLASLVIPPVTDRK

B1: HA-TRIM4 (enzyme, UniProt Q9C037 1-500)
chain: MEAEDIQEELTCPICLDYFQDPVSIECGHNFCRGCLHRNWAPGGGPFPCPECRHPSAPAALRPNWALARLTEKTQRRRLGPVPPGLCGRHWEPLRLFCEDDQRPVCLVCRESQEHQTHAMAPIDEAFESYRTGNFDIHVDEWKRRLIRLLLYHFKQEEKLLKSQRNLVAKMKKVMHLQDVEVKNATQWKDKIKSQRMRISTEFSKLHNFLVEEEDLFLQRLNKEEEETKKKLNENTLKLNQTIASLKKLILEVGEKSQAPTLELLQNPKEVLTRSEIQDVNYSLEAVKVKTVCQIPLMKEMLKRFQVAVNLAEDTAHPKLVFSQEGRYVKNTASASSWPVFSSAWNYFAGWRNPQKTAFVERFQHLPCVLGKNVFTSGKHYWEVESRDSLEVAVGVCREDVMGITDRSKMSPDVGIWAIYWSAAGYWPLIGFPGTPTQQEPALHRVGVYLDRGTGNVSFYSAVDGVHLHTFSCSSVSRLRPFFWLSPLASLVIPPVTDRK
B2: His-TRIM4 (purified from E. coli) (enzyme, UniProt Q9C037 1-500)
chain: MEAEDIQEELTCPICLDYFQDPVSIECGHNFCRGCLHRNWAPGGGPFPCPECRHPSAPAALRPNWALARLTEKTQRRRLGPVPPGLCGRHWEPLRLFCEDDQRPVCLVCRESQEHQTHAMAPIDEAFESYRTGNFDIHVDEWKRRLIRLLLYHFKQEEKLLKSQRNLVAKMKKVMHLQDVEVKNATQWKDKIKSQRMRISTEFSKLHNFLVEEEDLFLQRLNKEEEETKKKLNENTLKLNQTIASLKKLILEVGEKSQAPTLELLQNPKEVLTRSEIQDVNYSLEAVKVKTVCQIPLMKEMLKRFQVAVNLAEDTAHPKLVFSQEGRYVKNTASASSWPVFSSAWNYFAGWRNPQKTAFVERFQHLPCVLGKNVFTSGKHYWEVESRDSLEVAVGVCREDVMGITDRSKMSPDVGIWAIYWSAAGYWPLIGFPGTPTQQEPALHRVGVYLDRGTGNVSFYSAVDGVHLHTFSCSSVSRLRPFFWLSPLASLVIPPVTDRK
B3: endogenous MDA5 (protein, UniProt Q9BYX4 1-1025)
chain: MSNGYSTDENFRYLISCFRARVKMYIQVEPVLDYLTFLPAEVKEQIQRTVATSGNMQAVELLLSTLEKGVWHLGWTREFVEALRRTGSPLAARYMNPELTDLPSPSFENAHDEYLQLLNLLQPTLVDKLLVRDVLDKCMEEELLTIEDRNRIAAAENNGNESGVRELLKRIVQKENWFSAFLNVLRQTGNNELVQELTGSDCSESNAEIENLSQVDGPQVEEQLLSTTVQPNLEKEVWGMENNSSESSFADSSVVSESDTSLAEGSVSCLDESLGHNSNMGSDSGTMGSDSDEENVAARASPEPELQLRPYQMEVAQPALEGKNIIICLPTGSGKTRVAVYIAKDHLDKKKKASEPGKVIVLVNKVLLVEQLFRKEFQPFLKKWYRVIGLSGDTQLKISFPEVVKSCDIIISTAQILENSLLNLENGEDAGVQLSDFSLIIIDECHHTNKEAVYNNIMRHYLMQKLKNNRLKKENKPVIPLPQILGLTASPGVGGATKQAKAEEHILKLCANLDAFTIKTVKENLDQLKNQIQEPCKKFAIADATREDPFKEKLLEIMTRIQTYCQMSPMSDFGTQPYEQWAIQMEKKAAKEGNRKERVCAEHLRKYNEALQINDTIRMIDAYTHLETFYNEEKDKKFAVIEDDSDEGGDDEYCDGDEDEDDLKKPLKLDETDRFLMTLFFENNKMLKRLAENPEYENEKLTKLRNTIMEQYTRTEESARGIIFTKTRQSAYALSQWITENEKFAEVGVKAHHLIGAGHSSEFKPMTQNEQKEVISKFRTGKINLLIATTVAEEGLDIKECNIVIRYGLVTNEIAMVQARGRARADESTYVLVAHSGSGVIEHETVNDFREKMMYKAIHCVQNMKPEEYAHKILELQMQSIMEKKMKTKRNIAKHYKNNPSLITFLCKNCSVLACSGEDIHVIEKMHHVNMTPEFKELYIVRENKALQKKCADYQINGEIICKCGQAWGTMMVHKGLDLPCLKIRNFVVVFKNNSTKKQYKKWVELPITFPNLDYSECCLFSDED
B4: endogenous TRIM4 (enzyme, UniProt Q9C037 1-500)
chain: MEAEDIQEELTCPICLDYFQDPVSIECGHNFCRGCLHRNWAPGGGPFPCPECRHPSAPAALRPNWALARLTEKTQRRRLGPVPPGLCGRHWEPLRLFCEDDQRPVCLVCRESQEHQTHAMAPIDEAFESYRTGNFDIHVDEWKRRLIRLLLYHFKQEEKLLKSQRNLVAKMKKVMHLQDVEVKNATQWKDKIKSQRMRISTEFSKLHNFLVEEEDLFLQRLNKEEEETKKKLNENTLKLNQTIASLKKLILEVGEKSQAPTLELLQNPKEVLTRSEIQDVNYSLEAVKVKTVCQIPLMKEMLKRFQVAVNLAEDTAHPKLVFSQEGRYVKNTASASSWPVFSSAWNYFAGWRNPQKTAFVERFQHLPCVLGKNVFTSGKHYWEVESRDSLEVAVGVCREDVMGITDRSKMSPDVGIWAIYWSAAGYWPLIGFPGTPTQQEPALHRVGVYLDRGTGNVSFYSAVDGVHLHTFSCSSVSRLRPFFWLSPLASLVIPPVTDRK
B5: GFP-MDA5 (protein, UniProt Q9BYX4 1-1025)
chain: MSNGYSTDENFRYLISCFRARVKMYIQVEPVLDYLTFLPAEVKEQIQRTVATSGNMQAVELLLSTLEKGVWHLGWTREFVEALRRTGSPLAARYMNPELTDLPSPSFENAHDEYLQLLNLLQPTLVDKLLVRDVLDKCMEEELLTIEDRNRIAAAENNGNESGVRELLKRIVQKENWFSAFLNVLRQTGNNELVQELTGSDCSESNAEIENLSQVDGPQVEEQLLSTTVQPNLEKEVWGMENNSSESSFADSSVVSESDTSLAEGSVSCLDESLGHNSNMGSDSGTMGSDSDEENVAARASPEPELQLRPYQMEVAQPALEGKNIIICLPTGSGKTRVAVYIAKDHLDKKKKASEPGKVIVLVNKVLLVEQLFRKEFQPFLKKWYRVIGLSGDTQLKISFPEVVKSCDIIISTAQILENSLLNLENGEDAGVQLSDFSLIIIDECHHTNKEAVYNNIMRHYLMQKLKNNRLKKENKPVIPLPQILGLTASPGVGGATKQAKAEEHILKLCANLDAFTIKTVKENLDQLKNQIQEPCKKFAIADATREDPFKEKLLEIMTRIQTYCQMSPMSDFGTQPYEQWAIQMEKKAAKEGNRKERVCAEHLRKYNEALQINDTIRMIDAYTHLETFYNEEKDKKFAVIEDDSDEGGDDEYCDGDEDEDDLKKPLKLDETDRFLMTLFFENNKMLKRLAENPEYENEKLTKLRNTIMEQYTRTEESARGIIFTKTRQSAYALSQWITENEKFAEVGVKAHHLIGAGHSSEFKPMTQNEQKEVISKFRTGKINLLIATTVAEEGLDIKECNIVIRYGLVTNEIAMVQARGRARADESTYVLVAHSGSGVIEHETVNDFREKMMYKAIHCVQNMKPEEYAHKILELQMQSIMEKKMKTKRNIAKHYKNNPSLITFLCKNCSVLACSGEDIHVIEKMHHVNMTPEFKELYIVRENKALQKKCADYQINGEIICKCGQAWGTMMVHKGLDLPCLKIRNFVVVFKNNSTKKQYKKWVELPITFPNLDYSECCLFSDED

Key:
GFP-MDA5 = target: T1, GFP-MDA5; assay: co-IP
[1] = target: T2, GST-MDA5 (purified from E. coli); assay: pull-down; both purified
[2] = target: GFP-nsp8 (SARS-CoV-2 nonstructural protein 8) (SARS-CoV-2) (UniProt P0DTD1); assay: co-IP
[3] = target: nsp8 expressed from the Spike-deleted SARS-CoV-2 replicon (SARS-CoV-2) (UniProt P0DTD1); assay: co-IP
HA-TRIM4 = target: T3, HA-TRIM4; assay: co-IP

Binder | binding [2] | binding [3] | other results
B1 | – | – | binding (GFP-MDA5): binds
B2 | – | – | binding [1]: binds
B3 | binds | binds | –
B4 | binds | binds | –
B5 | – | – | binding (HA-TRIM4): binds
